# “Also recorded” adds a separate entry of the source. At least one compound was matched to its structure with a doubt left.
# Columns and labels:
# [1] = system: hiPSC-CMs; experiment: Patch clamp electrophysiology, whole-cell current clamp action potential; format: cell-based, human; conditions: 100 nM, both d30 and CMM, greater response on CMM
# [2] = system: hiPSC-CMs; experiment: Optical recording of action potential with genetically encoded voltage indicators (Varnam, Arclight); format: cell-based, human; conditions: cells on CMM
# From the text: Cyto-calcium, Action potential and redox handling. Cytoplasmic calcium and redox status of iPSC-CMs using spinning disk confocal microscope (Olympus/Andor Revolution XD) was monitored. 3rd gen. lentiviral probes using ViraPower™ Lentiviral mix was generated and transduced iPSC-CMs using MOI 5 (multiplicity of infection) that generated good signal to noise ratio. […]
# Florescence from cells (transduced with probes) was collected separately at a […] using an electron-multiplying charge-coupled device (EMCCD) camera using Andor Revolution X1 Spinning Disk confocal inverted microscope. […] ROS (roGFP2-Grx) probes were excited with 405 nm and 488 nm laser and emission was detected using bandpass filter of 500 nm-554 nm. […] Recovery of glutathione pool was monitored for 180-240 sec before the utilization of diamide (oxidized) and DTT (reduced) to obtain min and max signal. […] Cells transduced with cytoplasmic GCamp6f were excited at 488 nm and emission was detected using bandpass filter of 500 nm-554 nm. […] The data was analyzed using image J (NIH).
compound,measurement,setting,value
COC(=O)C1=C(C)NC(C)=C(C(=O)OC)C1c1ccccc1[N+](=O)[O-] [Nifedipine],effect on APD90,[1],significant reduction
same,effect on beat frequency,[2]; 100 nM,without affecting
same,"effect on AP duration (APD50, APD90)","[2]; ICa(L) 100 nM, optical recording",reduced; also recorded: shortens APD
